The record followed here is PubChem BioAssay AID1347426 (Functional Genomics Laboratory (NCATS/FGL), 2020).

Out of some 31,000 sequences screened, about 1,400 (4.5%) were called active.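 The calls were made as follows: active = median seed-adjusted z-score above 1 or below -1; inactive = the rest.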 This is one part of the list.

The experiment can be described thus: Novel Modifiers of Survival Motor Neuron (SMN) Protein: Gene Identification via Genome-wide siRNA Screen.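 Also: luminescence tracks full-length SMN protein made from the SMN2 reporter.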 As to conditions: HEK293T SMN2-luciferase reporter, siRNA knockdown, 72 h; actives lie on both sides. The method in brief:
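HEK293T cells stably carrying an SMN2 promoter/splicing cassette–luciferase reporter were reverse-transfected with 1 pmol siRNA per well (druggable-genome library, 3 siRNAs per gene) and grown 72 h at 37 °C. Luminescence, normalized to negative-control siRNA and log10-transformed, was scored as MAD.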
(In general: Reporter assays use an easily measured gene product as a stand-in for the process of interest.)
CAUAGAUGAUGCAAAGGUATT against MINPP1: the median seed-adjusted z-score was inactive: -0.0107. Turning to GUGGAGUAGGAAAACAUAATT against TCEAL1, the median seed-adjusted z-score is inactive: -0.263. With CUCCAUCUAUCUUCCCUGATT against PRELP the figure was inactive: -0.0579; with CCUCUCUAGUAAUGCAAGATT against NAT12, inactive: -0.0807; with GUACGGAUGCUGGACGGUATT against PCSK4, inactive: 0.828. In the case of CCACAAACAUUACCCUGGATT against TBXA2R, the median seed-adjusted z-score was inactive: 0. With GCACAGUUUGUAAACUGGATT against ELA2 the figure was inactive: 0.586; with CGGACACUAUUAUCACUAATT against DUSP6, inactive: 0. As to AGCUAGGCCUGGAUAUCGATT against KRT83, the median seed-adjusted z-score was active: 1.15. Under UAUGAGUUGUUGUUGGGAATT against NSUN5 stands inactive: 0.118. With GGAUUUCGUGUACCAGUUUTT against HLA-DQB1, the median seed-adjusted z-score is inactive: 0.454. With CGAGUGAUUAGGUACAUGATT against AP4B1 the figure was inactive: 0.0278. In the case of GCUUUACAUUGACAAUCCATT against CPVL, the median seed-adjusted z-score is inactive: 0.334.

On to GAAACUUGUUAAAGACAUUTT against ZFAND1, for which the median seed-adjusted z-score is inactive: -0.272.

Take GCUCUGCUCUAGACGUGAATT against IL31RA: the median seed-adjusted z-score was inactive: 0.36. With CCAUUUGAGGUGAACCGUATT against RFWD3 the figure was inactive: 0.554. Consider CCAUCUUGGUAAUGCCCAUTT against HTR1D, for which the median seed-adjusted z-score is inactive: -0.155. For the sequence CAGUGAAUGUGGAAGUUGUTT against ZNF501, the median seed-adjusted z-score is inactive: 0.19.

As for GAACCCACCAUACAAGUUUTT against SYT11, the median seed-adjusted z-score is inactive: 0.29. In the case of UGAUCGCAGGAGUAUCUUUTT against TRPV1, the median seed-adjusted z-score was inactive: -0.12.

With GAGUCACAAUUGAUCCGGATT against TOP2A, the median seed-adjusted z-score was inactive: -0.187. GAACAUUGUUCGACUGCUATT against GCKR: the median seed-adjusted z-score was inactive: 0.454. With GAUUAUCAAUUACCCACAUTT against MMP26 the figure was inactive: 0.0881; with GUCUGUGCUCAGUCAAAUATT against CCT6B, inactive: 0. Under GAAGCUCCCUUUACAUCAUTT against HEPACAM stands inactive: -0.063.

CAUCUACACCAGUAGCAUATT against HSD3B1: the median seed-adjusted z-score is inactive: -0.145.

CCAUAGGGCUGUCGGAUUATT against FRMD4B: the median seed-adjusted z-score is inactive: -0.567. Consider GAGGAUCAGUUGCUAUGAATT against PFKFB3, for which the median seed-adjusted z-score is inactive: -0.133. For GGAUCAGUAUGGGCAAAGATT against CALB1, the median seed-adjusted z-score is inactive: 0.191. With AGCCUCUCCUAUUCCCGAATT against PSMD3 the figure was inactive: 0.47. With GGCCGAACAUUACAGAACATT against PYGL the figure was inactive: 0.166. CAGUCAAAAUUAACCUGUUTT against RPE65: the median seed-adjusted z-score is inactive: -0.655. GACUGAGAGUUGGAUCAAATT against TRPM8: the median seed-adjusted z-score is inactive: 0.405. Under CUCUCGACGUGUUCAUUUATT against RAB20 stands inactive: -0.334.

Take CGAUUAAGCUCUACCUAAATT against CACNA2D3: the median seed-adjusted z-score was inactive: 0.198. Under CAUGUGCAGUACAUCCAUATT against TIMP3 stands active: -1.05. As for GGACUUCUUUGAAAAACCUTT against CSNK1G1, the median seed-adjusted z-score was inactive: -0.255. Under ACGGGCACCUGGAAAUUCATT against CRX stands inactive: -0.156; under CAGGUAGCAUGGACCUUAATT against RPP25, inactive: 0. Under GUAUAUUAUGUGAGGCAAATT against LRRC3B stands inactive: 0. With CUAUGUUCAUCGACUGGUUTT against BRAP the figure was inactive: 0.267; with CGGAGAAUCUCUUGUCUUATT against NEUROD2, inactive: -0.103. Consider GGAUGAAGAAGUUCGGCAATT against GLRX3, for which the median seed-adjusted z-score was inactive: 0.0784. Under ACAAGUUCGUGUGCAAAGATT against LHX5 stands inactive: -0.414; under GUCUACCAAUGAAAAGAGATT against TFEC, inactive: -0.0734; under CCCUAGAGUAUUACACGGATT against DGKD, inactive: 0.35.

Take CCGUUGCUAUGAACAAGUUTT against B4GALT3: the median seed-adjusted z-score was inactive: -0.138. On to GAUCUGAACACGUACCUCATT against PICK1, for which the median seed-adjusted z-score is inactive: -0.136.

As for GUCACCUUCUUUAACCUCATT against HRH3, the median seed-adjusted z-score is inactive: 0.276.

On to CAAAGACUCUGGAAUGAAUTT against PRICKLE2, for which the median seed-adjusted z-score was active: -1.12.

As to CAGUUACUCCAAUUCGUUUTT against ZNF266, the median seed-adjusted z-score was inactive: 0.426. Under CGAUCGACUCGGUGACUUUTT against COL7A1 stands active: 1.08. For GGGUACCGAGGAUCGCUUUTT against LAMA5, the median seed-adjusted z-score was inactive: 0.229. Consider CAUCAUCCAUGGUAGCUUUTT against DUOX1, for which the median seed-adjusted z-score was active: -1.09. With GGAAAGUCCUGUUUGAUCATT against RHBDL3 the figure was inactive: 0.56; with GAGUGGGACCUGAAGCCUATT against ALDH4A1, inactive: 0.0362. Turning to GAAGUGGAAUGCUGAAGAATT against CHRND, the median seed-adjusted z-score is inactive: -0.112. For the sequence GGUGCGCAACUCUACAUGATT against PSMA3, the median seed-adjusted z-score was inactive: -0.81. As for AGAGGAUUCUAGAAGCUGATT against RXRG, the median seed-adjusted z-score is inactive: 0.16. Under CCCUGAAUCUUGUUACAGATT against PRICKLE1 stands inactive: -0.486; under GAAUCAUCCCAACAUAGUUTT against MARK2, inactive: 0.664. Under GGUAGAAUCUAGGUAUGCATT against RAD51 stands inactive: 0.594. With GUAUCUAAGAGAUAUGGAATT against ORC5L the figure was inactive: -0.126; with GGUACUCGGUGGAAACCAATT against CNKSR3, inactive: 0; with GCUGUGCAACCAGAACAAATT against SCNN1A, inactive: -0.137. In the case of GGUCGUCAAUGCAGAUUAUTT against MEGF10, the median seed-adjusted z-score is inactive: 0.622. With UCAGUUUGCUGAGAACGAATT against TCEB1, the median seed-adjusted z-score is active: 1.08. As for GGAUGGAAAAUGAACAGCATT against ASPHD2, the median seed-adjusted z-score was inactive: -0.719. With CAGGUUAUCGUGUGAAGGATT against TNFRSF14, the median seed-adjusted z-score was inactive: 0.
